# Primary screen of a compound library

The chains behind the UniProt entries cited, without tags or fusion partners.
UniProt E9BF75, entry or part of it: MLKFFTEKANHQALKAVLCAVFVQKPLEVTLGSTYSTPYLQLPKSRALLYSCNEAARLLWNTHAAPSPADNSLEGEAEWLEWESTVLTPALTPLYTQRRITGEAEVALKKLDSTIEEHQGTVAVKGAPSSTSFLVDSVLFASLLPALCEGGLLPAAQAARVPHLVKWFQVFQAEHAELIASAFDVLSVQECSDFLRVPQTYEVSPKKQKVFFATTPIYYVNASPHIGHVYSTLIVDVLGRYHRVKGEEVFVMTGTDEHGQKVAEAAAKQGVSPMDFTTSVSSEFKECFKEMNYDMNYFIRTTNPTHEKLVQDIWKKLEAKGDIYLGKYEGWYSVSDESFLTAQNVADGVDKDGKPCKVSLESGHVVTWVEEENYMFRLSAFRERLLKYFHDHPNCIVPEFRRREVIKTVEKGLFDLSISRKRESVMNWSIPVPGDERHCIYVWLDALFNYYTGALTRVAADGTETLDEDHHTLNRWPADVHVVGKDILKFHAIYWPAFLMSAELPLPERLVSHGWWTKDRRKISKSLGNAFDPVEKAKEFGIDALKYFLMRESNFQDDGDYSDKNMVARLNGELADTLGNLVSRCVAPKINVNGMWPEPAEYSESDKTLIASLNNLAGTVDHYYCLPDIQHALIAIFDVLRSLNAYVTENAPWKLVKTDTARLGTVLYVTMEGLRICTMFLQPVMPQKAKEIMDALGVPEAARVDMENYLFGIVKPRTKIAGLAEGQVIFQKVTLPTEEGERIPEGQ

From ChEMBL document CHEMBL3988442, “University of Dundee, Small-Polar-MMV Screening Library” (2021).

Results are percentages, as filed.
The controls that fix the scale are not given in the record; negative values are as filed.
Compounds were drawn at random from those tested, without regard to their results.

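Methionyl-tRNA synthetase (putative), Leishmania donovani (UniProt E9BF75). Primary screen of methionyl-tRNA synthetase; the read-out is not stated. The test concentration is not given. The values are filed as inhibition. Size under these conditions: about 68,000 compounds, about 24 of them at 50% or above in at least one test.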

structure	inhibition
CN(C)c1ncccc1CNC(=O)N1CCCC1c1cccs1 (configuration not stated)	18.07%
CNS(=O)(=O)c1cccc(CNC(=O)c2cc(C)no2)c1	9.836%
CC(C)(NCc1ccc(C#N)cc1)c1ccc2c(c1)OCO2	13.17%
CC(CN1CCCCCC1)NCc1nncn1C1CCCCC1 (configuration not stated)	20.6%
O=C(Cc1ccccn1)N1CCc2nc(-c3cnccn3)nc(O)c2C1	3.767%
O=C(c1ccnnc1)N1CCN2C[C@H](OCc3cccnc3)C[C@H]2C1	14.93%
CCC(C)N(Cc1sccc1C)C(=O)c1cc(N)ccn1 (configuration not stated)	17.49%
O=C(NCCNc1cc(N2CCCC2)cnn1)Nc1ccccc1F	1.897%
Cc1nnsc1CN1CCCC1c1nc(-c2ccccc2)no1 (configuration not stated)	14.99%
CC(C)[C@H]1CN(Cc2ccccn2)C[C@@H]1NC(=O)CCS(C)(=O)=O	4.878%
O=C(Nc1cccnc1)Nc1ccn(CC(F)F)n1	1.003%
COc1ccc(NC(=O)CSc2ccc3nncn3n2)c(OC)c1	8.115%
COCCN1CCC(CN(CC2CCCO2)C(=O)CCNC(C)=O)CC1 (configuration not stated)	10.62%
Cc1cc(C(=O)N2CC[C@@]3(O)CCN(C(=O)N4CCCC4)C[C@H]3C2)no1	17.09%
CNCC(=O)Nc1cccc(-c2cnc(NCCS(C)(=O)=O)nc2)c1	14.81%
CN1Cc2ccccc2CC2(CCN(CCO)CC2)C1=O	-3.279%
O=C(NC1CC(F)(F)C1)[C@]12COC[C@H]1CN(Cc1ccccc1)C2	16.81%
Cc1ccc(C(=O)NS(=O)(=O)c2cc(Cl)ccc2Cl)c(=O)[nH]1	16.83%
O=C(c1ccccn1)N1C[C@@H]2CC[C@H](C1)N(C(=O)CCc1ccsc1)C2	4.724%
Cc1noc(C)c1CN1CCCC2(CCN(C(=O)C3CC3)C2)C1 (configuration not stated)	13.78%
CC(C)n1nc(CNc2ncccn2)c2c1CN(C1CCOCC1)CC2	18.53%
CCN(CC)CCn1c(NC(=O)c2scnc2C)nc2ccccc21	25%
Cc1ccc(C(=O)N2CCN(C(=O)NC(C)Cn3ccnc3)CC2)o1 (configuration not stated)	21.43%
COc1cccc(-c2noc(-c3ccc(NCC(C)C)nc3)n2)c1OC	4.469%
CC(=O)NCCNC(=O)c1cc(C)ccc1SC1CCCC1	16.67%
CC(c1cccs1)N(C)C(=O)c1cc(CN(C)Cc2ccccc2)on1 (configuration not stated)	12.42%
O=C(c1ccccc1)N1C[C@@H]2CCCO[C@@H]2[C@H](N2CCCC2)C1	10.03%
CN(CCNS(C)(=O)=O)C(=O)c1ccc(Cl)c(Cl)c1	15.53%
OC(CNCCn1cccn1)c1ccc(C(F)(F)F)cc1 (configuration not stated)	10.69%
Cc1cc(Cl)ccc1-n1ncc(C(=O)NCC2COC(C)(C)O2)c1N (configuration not stated)	4.167%
CN(C)C(=O)N1CCN(c2cc(N3CCCC3CO)ncn2)CC1 (configuration not stated)	6.425%
CCc1ccccc1OC1CN(C(=O)c2cccs2)C1	1.872%
Cc1nc(CN2CCCC(Cn3cncn3)C2)nc2ccccc12 (configuration not stated)	19.37%
CCN(CC1CCOC1)C(=O)c1ccccc1S(=O)(=O)CC (configuration not stated)	10.89%
CCN1CCc2[nH]cnc2C12CCN(Cc1ccc3nsnc3c1)CC2	19.47%
Cc1ccccc1CC(=O)N[C@@H]1CCC[C@@H](N2CCNC(=O)C2)[C@@H]1O	12.86%
CCC(C)N(C)C(=O)Nc1ccc(N2CCSCC2)cc1C (configuration not stated)	8.424%
COCCC(C)NS(=O)(=O)c1ccc(C)c(N(C)C)c1 (configuration not stated)	7.283%
c1cncc(CNc2cncc(C3CCCN3)n2)c1 (configuration not stated)	17.55%
CN(Cc1cnn(C)c1)C(=O)CCc1ccc2c(c1)OCO2	9.581%
Clc1ccc(N2CCC(C3CCN(Cc4cccnc4)CC3)C2)nc1 (configuration not stated)	6.69%
Cc1nc(CO[C@@H]2CN(Cc3cccs3)[C@@H]3COC[C@@H]32)cs1	-5.625%
CN(Cc1cnn(C)c1)C(=O)C(c1ccccc1)N1CCSCC1 (configuration not stated)	3.183%
CC(NCC1CCN(CCO)CC1)c1ccc(Cl)cc1 (configuration not stated)	8.333%
Fc1ccccc1CO[C@@H]1C[C@H]2CN(c3ncccn3)CCN2C1	3.986%
c1ccc(C2CN(c3ncnc4[nH]cnc34)CCO2)cc1 (configuration not stated)	15.16%
CC(C)c1nn(C)c(N(C)C)c1CNCc1cccc2c1OCO2	20%
CCN(CC)c1ncccc1CNCc1cc2ccccc2s1	20.32%
CO[C@@H]1CN(c2ccccc2)S(=O)(=O)[C@@]12CCN(C)C2	2.466%
Cc1cc(C)n(CC2CCCCN2C(=O)c2ccc3c(c2)OCO3)n1 (configuration not stated)	15.38%
CC(C)Cc1cc(CNC(=O)C2CCCN(C(=O)N(C)C)C2)no1 (configuration not stated)	8.681%
CC(C)[C@@H]1CN(CC(=O)NCc2ccco2)C[C@H]1NS(=O)(=O)N(C)C	22.18%
Cc1cccc(C(=O)Nc2ccc(OC3CCN(C)CC3)cc2)c1	6.299%
Cc1ccccc1N1CC2(CCN(S(=O)(=O)C3CC3)C2)CC1=O (configuration not stated)	3.03%
CCc1nnc2n1CCN(C(=O)c1ccc3nc(C)c(C)nc3c1)C2	14.16%
O=C(O)c1ccccc1C1CCN(C2Cc3ccccc3C2)C1 (configuration not stated)	7.754%
CN(C)C(=O)CN(C)C(=O)c1csc(Br)c1	3.597%
CS(=O)(=O)NC1CCN(Cc2ccc(OCc3ccccn3)cc2)CC1	12.85%
OC1CCN(c2cnnc3ccccc23)CC1	5.744%
O=C(NC[C@H]1CCCC[C@H]1O)c1ccc2nc(-c3ccco3)[nH]c2c1	16.94%
Cc1nn(C)c(C)c1-c1cnc(C2CCCN(C)C2)cn1 (configuration not stated)	20.06%
O=C1CCC2(CCCN(C(=O)c3ccoc3)C2)CN1Cc1ccncc1 (configuration not stated)	9.091%
CC(C)c1nnc(NC(=O)N2CCCC2c2ccncc2)s1 (configuration not stated)	5.986%
Cc1cn2cc(-c3nc4c([nH]3)CCCNC4=O)nc2s1	3.125%
Fc1ccc(CN2Cc3nccn3CC(CN3CCOCC3)C2)cc1 (configuration not stated)	10.67%
Cc1ccc(C(=O)N2CCc3ncnc(C)c3CC2)o1	3.008%
Cc1cccc(CN2C[C@@H]3COC[C@H](NS(C)(=O)=O)[C@@H]3C2)n1	10.68%
Cn1nc(Br)c2c(NCCCS(N)(=O)=O)ncnc21	17%
CC1CCCN(Cc2ccc(OCc3nccn3C)cc2)C1 (configuration not stated)	14.53%

5 of the entries, repeated:

| structure | inhibition |
|---|---|
| `OC(CNCCn1cccn1)c1ccc(C(F)(F)F)cc1` (configuration not stated) | 10.69% |
| `CNS(=O)(=O)c1cccc(CNC(=O)c2cc(C)no2)c1` | 9.836% |
| `COCCC(C)NS(=O)(=O)c1ccc(C)c(N(C)C)c1` (configuration not stated) | 7.283% |
| `CCC(C)N(Cc1sccc1C)C(=O)c1cc(N)ccn1` (configuration not stated) | 17.49% |
| `CC(C)n1nc(CNc2ncccn2)c2c1CN(C1CCOCC1)CC2` | 18.53% |